The nature of this data set: Hydrogen storage in the ionic liquid and release at reduced pressure. The procedure:
Hydrogen is passed for 10 minutes through 5 g of the above mentioned ionic liquid 3-mesityl-1-octyl-imidazolium tetrafluoroborate (Example 95). Then the stored hydrogen is released at reduced pressure.
0.511 g of hydrogen is released. This corresponds to a hydrogen storage capacity of the ionic liquid 3-mesityl-1-octyl-imidazolium tetrafluoroborate of 10.22 weight percent.

Consider `CCCCCCCCn1cc[n+](-c2c(C)cc(C)cc2C)c1.F[B-](F)(F)F` [3-mesityl-1-octyl-imidazolium tetrafluoroborate], for which the hydrogen storage capacity (0.511 g hydrogen released from 5 g ionic liquid) was 10.22 weight percent. Also, the hydrogen released (hydrogen passed for 10 minutes through 5 g of the ionic liquid, released at reduced pressure) worked out at 0.511 g.

The record behind these values is patent US9260397B2, “Salts comprising aryl-alkyl-substituted imidazolium and triazolium cations and the use thereof” (TECHNISCHE UNIVERSITAET DRESDEN, priority 2008, dated 2016).
